According to PubChem BioAssay AID248 (DTP/NCI, 2004):
The list shows only some results of the screen, not a fair sample: it gathers tests that were run many times, whatever their T/C, doses with no T/C, and many T/C values between a quarter and a half above the control. Other doses and runs of a compound stand elsewhere. T/C: endpoint of the treated group in % of that of the vehicle group. Some entries give survivors of the animals treated and no T/C: the source holds a T/C of zero for them, seemingly a mark for toxic or unscored doses. Some survivor counts are full or nearly so, which does not show that the dose was tolerated: survival well below the control is almost never listed, so the zero probably covers shortened survival too. Survivors were counted at the toxicity check, usually on the fifth day, unless a day is given; later deaths do not show. Schedules are NCI's codes, taken here to give the interval after Q, in days (D) or hours (H), and the number of doses after X. Some entries were tested several times; the values are given in rising order.

Test system: L1210 leukemia ip in BDF1 mice, survival T/C
Experiment: NCI In Vivo Anticancer Drug Screen. Data for tumor model L1210 Leukemia (intraperitoneal) in B6D2F1 (BDF1) mice
Conditions: T/C endpoint: mean survival time, higher T/C = longer survival
[1] = dose: 200.0 mg/kg/injection, schedule: Q01DX009 (ip), vehicle: saline with Tween-80
[2] = dose: 200.0 mg/kg/injection, schedule: Q04DX002 (ip), vehicle: Klucel (hydroxypropylcellulose) (HPC)
[3] = dose: 400.0 mg/kg/injection, schedule: Q04DX002 (ip), vehicle: Klucel (hydroxypropylcellulose) (HPC)
[4] = dose: 100.0 mg/kg/injection, schedule: Q01DX001 (ip), vehicle: carboxymethylcellulose (CMC)
[5] = dose: 200.0 mg/kg/injection, schedule: Q01DX001 (ip), vehicle: carboxymethylcellulose (CMC)
[6] = dose: 400.0 mg/kg/injection, schedule: Q01DX001 (ip), vehicle: carboxymethylcellulose (CMC)
[7] = dose: 400.0 mg/kg/injection, schedule: Q04DX003 (ip), vehicle: saline with Tween-80

What does the source list for `Nc1[nH]nc2nc(-c3ccccc3)cnc12`?
survivor count [1]: 5 of 6; survivor count (dose: 400.0 mg/kg/injection, schedule: Q01DX009 (ip), vehicle: saline with Tween-80): 0 of 6

For `NC(CSS(=O)(=O)O)=NCCSc1ccc(Cl)cc1`, which survivor count (dose: 50.0 mg/kg/injection, schedule: Q04DX002 (ip), vehicle: Klucel (hydroxypropylcellulose) (HPC)) is on record?
The survivor count was 1 of 3.

And the survivor count (dose: 100.0 mg/kg/injection, schedule: Q04DX002 (ip), vehicle: Klucel (hydroxypropylcellulose) (HPC))?
Its survivor count is 0 of 3.

What about the survivor count [2] of the same molecule?
Its survivor count is 0 of 3.

What about the survivor count [3] of the same molecule?
The survivor count was 0 of 3.

For `Oc1ccc(Br)cc1/C=N\NC(=S)Nc1ccc2cn[nH]c2c1`, which survivor count (dose: 50.0 mg/kg/injection, schedule: Q01DX001 (ip), vehicle: carboxymethylcellulose (CMC)) is on record?
Its survivor count is 2 of 4.

What about the survivor count [4] of the same molecule?
Its survivor count is 0 of 4 and 2 of 4.

What about the survivor count [5] of the same molecule?
Its survivor count is 0 of 4.

What about the survivor count [6] of the same molecule?
Its survivor count is 0 of 4 and 2 of 4.

`CCOC(=O)C(=CN(C(C)C)C(C)C)C(=O)OCC` was tested. Which survivor count [7] did it give?
Its survivor count is 2 of 6.

Which results are given for `O=NO.O=N[O-].O=N[O-].[Co+3].[NH-]CC[N-]CCO.[NH-]CC[N-]CCO`?
survivor count (dose: 100.0 mg/kg/injection, schedule: Q01DX009 (ip), vehicle: water): 4 of 6; survivor count (dose: 200.0 mg/kg/injection, schedule: Q01DX009 (ip), vehicle: water): 0 of 6; survivor count (dose: 200.0 mg/kg/injection, schedule: Q04DX003 (ip), vehicle: water): 2 of 6; survivor count (dose: 400.0 mg/kg/injection, schedule: Q04DX003 (ip), vehicle: water): 0 of 6

Which survivor count [4] does the source give for `CC1CC=CC(N2C(=O)c3ccccc3C2=O)C1` (stereo not drawn) here?
Its survivor count is 4 of 4.

How did the survivor count (dose: 150.0 mg/kg/injection, schedule: Q01DX001 (ip), vehicle: other) turn out when `c1ccc(C2=NNc3cccc[n+]3C2)cc1` was run?
Its survivor count is 0 of 6.

What about the survivor count (dose: 300.0 mg/kg/injection, schedule: Q01DX001 (ip), vehicle: other) of the same molecule?
Its survivor count is 1 of 6.

For `O=C(Nc1cccc(F)c1)Nc1cc([N+](=O)[O-])ccc1Cl`, which survivor count (dose: 200.0 mg/kg/injection, schedule: Q01DX009 (ip), vehicle: Klucel (hydroxypropylcellulose) (HPC)) is on record?
The survivor count was 6 of 6.

`CN/N=C1\CCC2C3CCc4cc(O)ccc4C3CCC12C` (stereo not drawn) was tested. Which survivor count (dose: 400.0 mg/kg/injection, schedule: Q01DX009 (ip), vehicle: Klucel (hydroxypropylcellulose) (HPC)) did it give?
The survivor count was 6 of 6.

For `CC(=O)Nc1ncnc2n[nH]c(C#N)c12`, which survivor count (dose: 200.0 mg/kg/injection, schedule: Q01DX005 (ip), vehicle: saline with Tween-80) is on record?
Its survivor count is 1 of 6.

What about the survivor count (dose: 400.0 mg/kg/injection, schedule: Q01DX005 (ip), vehicle: saline with Tween-80) of the same molecule?
The survivor count was 0 of 6.

How did the survivor count (dose: 400.0 mg/kg/injection, schedule: Q01DX001 (ip), vehicle: saline) turn out when `Nc1ncc([N+](=O)[O-])s1` was run?
Its survivor count is 1 of 4.

Which results are given for `CCCCCCCCCCCCCCCCS(=O)(=O)c1ccc(S(=O)(=O)F)cc1NC(C)=O`?
survivor count (dose: 100.0 mg/kg/injection, schedule: Q01DX009 (ip), vehicle: saline sonified): 6 of 6; survivor count (dose: 400.0 mg/kg/injection, schedule: Q01DX009 (ip), vehicle: saline sonified): 6 of 6

Which results are given for `CSc1ccc(C(=O)CCl)c(C)c1`?
survivor count [4]: 0 of 6; survivor count [5]: 1 of 6; survivor count [6]: 0 of 6

`CC[S+](CC)CC` was tested. Which survivor count (dose: 400.0 mg/kg/injection, schedule: Q04DX003 (ip), vehicle: saline) did it give?
The survivor count was 1 of 6.

For `CC(=C(C#N)C#N)c1ccccc1`, which survivor count (dose: 100.0 mg/kg/injection, schedule: Q04DX003 (ip), vehicle: saline with Tween-80) is on record?
The survivor count was 6 of 6.

And the survivor count (dose: 200.0 mg/kg/injection, schedule: Q04DX003 (ip), vehicle: saline with Tween-80)?
Its survivor count is 0 of 6.

What about the survivor count [7] of the same molecule?
The survivor count was 0 of 6.

How did the survivor count [1] turn out when `CCOc1ccc(NC(=O)NCCBr)cc1` was run?
Its survivor count is 3 of 3.

Which results are given for `CN(C)NCCOC(c1ccccc1)c1ccccc1`?
survivor count [2]: 2 of 3; survivor count [3]: 0 of 3

Which survivor count (dose: 75.0 mg/kg/injection, schedule: Q01DX001 (ip), vehicle: saline) does the source give for `NC1CCc2ccccc2-c2ccccc21` (stereo not drawn) here?
Its survivor count is 3 of 6.

And the survivor count (dose: 150.0 mg/kg/injection, schedule: Q01DX001 (ip), vehicle: saline)?
Its survivor count is 0 of 6.

What about the survivor count (dose: 300.0 mg/kg/injection, schedule: Q01DX001 (ip), vehicle: saline) of the same molecule?
The survivor count was 0 of 6.
